Measurements as given in the supplement of paper PMC10849652.
This is one part of the list.

Chains of the proteins cited; added tags and fusions are not shown. Lines headed by an entry give the natural chain unless they say otherwise; changes in a name come on top.
UniProt Q86X95: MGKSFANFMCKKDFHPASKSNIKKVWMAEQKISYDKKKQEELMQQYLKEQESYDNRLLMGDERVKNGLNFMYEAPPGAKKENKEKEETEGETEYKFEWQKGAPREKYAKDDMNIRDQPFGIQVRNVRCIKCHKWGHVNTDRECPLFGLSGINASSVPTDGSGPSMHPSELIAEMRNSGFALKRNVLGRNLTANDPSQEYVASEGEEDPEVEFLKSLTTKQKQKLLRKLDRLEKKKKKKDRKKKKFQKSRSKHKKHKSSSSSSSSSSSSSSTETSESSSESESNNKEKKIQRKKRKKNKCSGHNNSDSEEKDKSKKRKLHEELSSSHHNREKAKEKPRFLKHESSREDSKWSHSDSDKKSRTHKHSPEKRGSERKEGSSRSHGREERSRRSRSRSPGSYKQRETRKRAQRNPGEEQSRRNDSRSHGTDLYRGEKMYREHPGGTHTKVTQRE
UniProt Q9NRB3: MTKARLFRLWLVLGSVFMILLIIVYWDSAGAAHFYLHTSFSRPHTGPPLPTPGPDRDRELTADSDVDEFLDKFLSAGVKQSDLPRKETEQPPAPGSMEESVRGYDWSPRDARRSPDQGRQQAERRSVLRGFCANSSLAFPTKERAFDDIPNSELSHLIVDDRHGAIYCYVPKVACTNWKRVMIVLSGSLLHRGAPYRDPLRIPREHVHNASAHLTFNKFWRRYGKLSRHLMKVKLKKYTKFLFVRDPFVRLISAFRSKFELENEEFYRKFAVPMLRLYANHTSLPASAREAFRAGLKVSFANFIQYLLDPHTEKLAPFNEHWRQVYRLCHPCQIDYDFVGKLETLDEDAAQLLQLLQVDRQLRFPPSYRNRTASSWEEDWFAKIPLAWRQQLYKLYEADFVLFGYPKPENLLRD
UniProt P39059: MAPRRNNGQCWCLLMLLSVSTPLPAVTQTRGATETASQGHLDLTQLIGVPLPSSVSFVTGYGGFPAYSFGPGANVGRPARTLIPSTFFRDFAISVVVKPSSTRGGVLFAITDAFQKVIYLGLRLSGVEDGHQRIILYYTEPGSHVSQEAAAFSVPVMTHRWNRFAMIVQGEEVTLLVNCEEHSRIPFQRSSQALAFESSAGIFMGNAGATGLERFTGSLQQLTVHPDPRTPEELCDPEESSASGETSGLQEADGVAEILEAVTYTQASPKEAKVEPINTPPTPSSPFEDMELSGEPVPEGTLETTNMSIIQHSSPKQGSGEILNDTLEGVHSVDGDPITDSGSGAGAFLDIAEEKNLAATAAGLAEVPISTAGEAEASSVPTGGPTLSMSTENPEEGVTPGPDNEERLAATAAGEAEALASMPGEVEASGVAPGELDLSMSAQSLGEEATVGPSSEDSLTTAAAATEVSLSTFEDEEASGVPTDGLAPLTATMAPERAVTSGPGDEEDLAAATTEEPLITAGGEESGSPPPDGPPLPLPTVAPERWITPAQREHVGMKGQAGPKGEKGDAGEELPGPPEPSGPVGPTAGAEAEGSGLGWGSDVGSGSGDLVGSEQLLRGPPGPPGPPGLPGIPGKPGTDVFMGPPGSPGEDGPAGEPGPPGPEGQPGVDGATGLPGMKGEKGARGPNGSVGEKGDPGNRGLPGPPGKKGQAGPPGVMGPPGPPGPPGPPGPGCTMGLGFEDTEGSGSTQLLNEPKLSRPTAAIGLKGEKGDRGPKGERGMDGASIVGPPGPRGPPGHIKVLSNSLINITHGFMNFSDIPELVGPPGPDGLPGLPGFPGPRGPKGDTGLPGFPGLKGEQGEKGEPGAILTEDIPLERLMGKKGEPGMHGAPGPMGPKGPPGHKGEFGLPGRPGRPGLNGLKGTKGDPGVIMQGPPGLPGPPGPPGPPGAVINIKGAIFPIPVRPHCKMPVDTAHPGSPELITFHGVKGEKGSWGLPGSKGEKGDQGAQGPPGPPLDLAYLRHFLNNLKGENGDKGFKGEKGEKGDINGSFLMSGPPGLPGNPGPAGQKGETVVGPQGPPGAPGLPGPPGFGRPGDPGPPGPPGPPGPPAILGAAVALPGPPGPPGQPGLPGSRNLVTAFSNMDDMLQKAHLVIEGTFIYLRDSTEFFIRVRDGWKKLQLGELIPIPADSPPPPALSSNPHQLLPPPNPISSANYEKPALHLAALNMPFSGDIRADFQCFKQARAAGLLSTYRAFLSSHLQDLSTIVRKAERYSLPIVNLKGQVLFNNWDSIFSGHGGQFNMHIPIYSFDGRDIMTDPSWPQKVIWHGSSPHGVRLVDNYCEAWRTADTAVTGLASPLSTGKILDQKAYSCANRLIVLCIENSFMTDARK
UniProt Q9Y4C5: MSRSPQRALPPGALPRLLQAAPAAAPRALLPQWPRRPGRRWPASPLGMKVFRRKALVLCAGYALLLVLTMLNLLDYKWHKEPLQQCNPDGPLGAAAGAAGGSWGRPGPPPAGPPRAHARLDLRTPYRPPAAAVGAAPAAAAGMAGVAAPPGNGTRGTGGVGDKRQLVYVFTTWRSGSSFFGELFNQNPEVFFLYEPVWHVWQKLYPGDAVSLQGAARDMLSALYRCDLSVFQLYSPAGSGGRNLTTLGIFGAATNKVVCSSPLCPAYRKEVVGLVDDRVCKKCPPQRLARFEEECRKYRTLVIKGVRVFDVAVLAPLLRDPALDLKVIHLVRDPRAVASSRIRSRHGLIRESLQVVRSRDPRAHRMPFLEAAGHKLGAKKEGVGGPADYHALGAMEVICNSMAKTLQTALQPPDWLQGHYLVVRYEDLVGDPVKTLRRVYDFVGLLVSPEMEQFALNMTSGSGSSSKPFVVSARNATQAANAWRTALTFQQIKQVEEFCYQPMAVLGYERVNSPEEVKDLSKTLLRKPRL
UniProt P62633: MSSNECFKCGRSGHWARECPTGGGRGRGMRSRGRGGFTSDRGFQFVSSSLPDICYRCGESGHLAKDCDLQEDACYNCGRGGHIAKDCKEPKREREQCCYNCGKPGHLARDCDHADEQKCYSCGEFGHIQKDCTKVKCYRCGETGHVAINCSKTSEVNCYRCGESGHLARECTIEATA
UniProt G5E9Z2: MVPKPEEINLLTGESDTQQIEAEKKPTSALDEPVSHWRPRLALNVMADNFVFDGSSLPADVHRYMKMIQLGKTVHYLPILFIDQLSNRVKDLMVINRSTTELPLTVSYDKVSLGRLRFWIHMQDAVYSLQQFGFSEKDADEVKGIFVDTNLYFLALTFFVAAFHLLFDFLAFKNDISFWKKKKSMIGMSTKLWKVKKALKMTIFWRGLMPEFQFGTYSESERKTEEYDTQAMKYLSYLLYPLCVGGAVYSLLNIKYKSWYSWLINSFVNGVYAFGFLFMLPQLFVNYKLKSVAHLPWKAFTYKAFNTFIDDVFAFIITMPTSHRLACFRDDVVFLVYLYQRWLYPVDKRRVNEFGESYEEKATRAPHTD
UniProt Q14746: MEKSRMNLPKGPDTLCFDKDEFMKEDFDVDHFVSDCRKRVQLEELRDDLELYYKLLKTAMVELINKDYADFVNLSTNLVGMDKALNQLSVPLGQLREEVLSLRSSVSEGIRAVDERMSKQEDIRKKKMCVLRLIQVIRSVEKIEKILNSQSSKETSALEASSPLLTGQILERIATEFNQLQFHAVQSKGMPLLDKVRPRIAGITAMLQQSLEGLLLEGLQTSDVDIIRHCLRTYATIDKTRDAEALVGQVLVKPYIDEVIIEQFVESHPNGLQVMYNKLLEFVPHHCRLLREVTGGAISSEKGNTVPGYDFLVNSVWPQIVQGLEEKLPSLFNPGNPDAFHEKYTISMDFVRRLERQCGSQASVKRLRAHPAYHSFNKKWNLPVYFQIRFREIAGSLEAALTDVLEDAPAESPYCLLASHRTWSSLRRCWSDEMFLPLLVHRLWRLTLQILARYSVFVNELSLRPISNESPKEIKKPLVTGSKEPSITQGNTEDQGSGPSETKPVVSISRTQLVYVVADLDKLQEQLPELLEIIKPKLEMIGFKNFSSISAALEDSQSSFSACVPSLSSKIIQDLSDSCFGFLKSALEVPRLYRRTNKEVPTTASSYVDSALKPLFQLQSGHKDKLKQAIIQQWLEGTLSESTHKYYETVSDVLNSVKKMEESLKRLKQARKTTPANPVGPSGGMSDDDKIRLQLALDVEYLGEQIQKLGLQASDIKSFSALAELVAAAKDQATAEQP
UniProt Q86X52: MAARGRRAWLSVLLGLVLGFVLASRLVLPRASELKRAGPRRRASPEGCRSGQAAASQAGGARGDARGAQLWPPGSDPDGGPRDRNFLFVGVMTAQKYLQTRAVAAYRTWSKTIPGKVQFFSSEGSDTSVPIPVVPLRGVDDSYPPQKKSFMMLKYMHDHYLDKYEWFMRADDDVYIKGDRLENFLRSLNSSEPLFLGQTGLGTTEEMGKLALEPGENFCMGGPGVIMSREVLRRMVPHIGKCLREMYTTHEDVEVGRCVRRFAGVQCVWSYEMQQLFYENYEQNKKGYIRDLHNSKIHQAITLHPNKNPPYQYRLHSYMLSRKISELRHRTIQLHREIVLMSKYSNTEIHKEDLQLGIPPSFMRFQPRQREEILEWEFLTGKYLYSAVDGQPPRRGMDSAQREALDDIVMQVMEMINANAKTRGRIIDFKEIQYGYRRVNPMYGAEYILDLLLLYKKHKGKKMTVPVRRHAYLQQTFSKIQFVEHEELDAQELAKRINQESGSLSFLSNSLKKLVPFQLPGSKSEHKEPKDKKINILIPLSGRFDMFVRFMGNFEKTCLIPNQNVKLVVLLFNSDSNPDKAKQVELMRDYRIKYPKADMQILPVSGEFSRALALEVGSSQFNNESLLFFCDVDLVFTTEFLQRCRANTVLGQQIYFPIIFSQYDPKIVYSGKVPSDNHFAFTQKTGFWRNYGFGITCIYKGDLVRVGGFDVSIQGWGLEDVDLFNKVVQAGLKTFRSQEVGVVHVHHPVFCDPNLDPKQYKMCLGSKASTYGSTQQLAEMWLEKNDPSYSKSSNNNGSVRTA
UniProt Q9H9E3: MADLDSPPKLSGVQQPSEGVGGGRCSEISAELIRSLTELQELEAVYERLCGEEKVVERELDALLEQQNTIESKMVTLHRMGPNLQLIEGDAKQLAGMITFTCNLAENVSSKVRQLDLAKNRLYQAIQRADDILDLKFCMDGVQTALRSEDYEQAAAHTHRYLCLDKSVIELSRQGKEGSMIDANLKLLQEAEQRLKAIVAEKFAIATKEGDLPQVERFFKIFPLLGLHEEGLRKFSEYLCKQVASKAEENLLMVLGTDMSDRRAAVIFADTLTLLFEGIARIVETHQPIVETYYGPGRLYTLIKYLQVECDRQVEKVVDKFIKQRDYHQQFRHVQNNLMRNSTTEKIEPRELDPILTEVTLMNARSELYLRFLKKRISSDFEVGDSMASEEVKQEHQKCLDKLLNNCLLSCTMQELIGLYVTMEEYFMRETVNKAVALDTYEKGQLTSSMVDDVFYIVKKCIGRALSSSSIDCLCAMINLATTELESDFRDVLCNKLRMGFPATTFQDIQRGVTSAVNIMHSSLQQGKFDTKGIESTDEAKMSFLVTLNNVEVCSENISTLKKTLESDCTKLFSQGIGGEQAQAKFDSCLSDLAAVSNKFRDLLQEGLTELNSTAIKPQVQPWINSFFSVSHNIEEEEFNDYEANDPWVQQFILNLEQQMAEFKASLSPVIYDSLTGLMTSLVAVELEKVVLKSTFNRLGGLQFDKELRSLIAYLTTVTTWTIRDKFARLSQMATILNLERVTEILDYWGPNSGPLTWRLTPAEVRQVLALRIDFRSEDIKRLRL
UniProt Q96F85: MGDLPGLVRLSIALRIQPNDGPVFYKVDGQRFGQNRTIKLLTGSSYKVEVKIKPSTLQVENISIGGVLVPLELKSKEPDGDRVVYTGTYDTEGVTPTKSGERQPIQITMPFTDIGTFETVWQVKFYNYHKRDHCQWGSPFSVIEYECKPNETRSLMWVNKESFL
UniProt P51801: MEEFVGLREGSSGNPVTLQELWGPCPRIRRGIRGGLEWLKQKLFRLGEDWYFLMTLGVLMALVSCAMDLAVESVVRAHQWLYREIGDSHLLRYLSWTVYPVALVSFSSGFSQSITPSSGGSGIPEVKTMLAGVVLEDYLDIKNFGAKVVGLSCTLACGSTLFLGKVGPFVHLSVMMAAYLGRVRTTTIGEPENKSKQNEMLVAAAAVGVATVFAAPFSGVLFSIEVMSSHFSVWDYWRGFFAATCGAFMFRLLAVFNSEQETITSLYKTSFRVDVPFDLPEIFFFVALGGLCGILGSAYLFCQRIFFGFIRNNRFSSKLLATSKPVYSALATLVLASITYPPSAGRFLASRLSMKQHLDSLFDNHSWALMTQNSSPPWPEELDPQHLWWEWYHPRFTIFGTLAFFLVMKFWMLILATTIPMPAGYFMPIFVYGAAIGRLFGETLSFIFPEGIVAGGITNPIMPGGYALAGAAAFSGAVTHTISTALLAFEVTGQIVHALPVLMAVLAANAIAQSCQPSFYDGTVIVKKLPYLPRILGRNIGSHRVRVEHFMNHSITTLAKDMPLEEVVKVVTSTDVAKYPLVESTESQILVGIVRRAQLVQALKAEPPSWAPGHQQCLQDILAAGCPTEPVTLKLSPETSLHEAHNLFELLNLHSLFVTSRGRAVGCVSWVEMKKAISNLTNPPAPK

Experiments:
Assay in all cases: log2 fold change, soluble protein after heating vs DMSO (PISA); higher = thermal stabilisation; K562 cells, 10 uM, 30 min; active = over 0.2 and 3.5 SD of the protein, either way, in both replicates (recomputed)
[1] = compound: Cc1ccc(NC(=O)c2ccc(CN3CC[C@H](N(C)C)C3)c(C(F)(F)F)c2)cc1Nc1nccc(-c2cncnc2)n1 [bafetinib]
Procedure, shortened: (§1)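 Quantification of soluble protein used TMTpro 16plex LC-MS/MS, with channel sums equalised. Samples were the supernatant after 21,000xg for 90 min of pooled aliquots from K562 cells (2×10^6 cells/mL) treated with 10 μM compound for 30 min, heated for 3 min over 48°C-58°C, and extracted in PBS with 0.5% NP-40 at 4°C. Values, from duplicates, describe thermal stability against control samples on a log2 fold-change scale.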

[2] = compound: Cc1cccc(CC(=O)N2CCc3c2ccc(-c2cn(C)c4ncnc(N)c24)c3F)n1
Procedure, shortened: as §1

[3] = compound: Cc1nc(Nc2ncc(C(=O)Nc3c(C)cccc3Cl)s2)cc(N2CCN(CCO)CC2)n1 [dasatinib]
Procedure, shortened: as §1

[4] = compound: Cn1cc(-c2ccc3c(c2)CCN3C(=O)Cc2cccc(C(F)(F)F)c2)c2c(N)ncnc21
Procedure, shortened: as §1

[5] = compound: Cn1cc(-c2ccc3nnc(C(F)(F)c4ccc5ncccc5c4)n3n2)cn1
Procedure, shortened: as §1

[6] = compound: Cn1cncc1[C@@](N)(c1ccc(Cl)cc1)c1ccc2c(c1)c(-c1cccc(Cl)c1)cc(=O)n2C [tipifarnib]
Procedure, shortened: as §1

[7] = compound: FC(F)(F)c1ccc(/C=C/c2nc(COc3ccc(CCCCn4ccnn4)cc3)co2)cc1 [mubritinib]
Procedure, shortened: as §1

[8] = compound: NC(=O)Nc1cc(-c2cccc(F)c2)sc1C(=O)N[C@H]1CCCNC1
Procedure, shortened: as §1

[9] = compound: NC(=O)c1cnc(N[C@@H]2CCCC[C@@H]2N)nc1Nc1cccc(-n2nccn2)c1
Procedure, shortened: as §1

[10] = compound: NC1(c2ccc(-c3nc4ccn5c(=O)[nH]nc5c4cc3-c3ccccc3)cc2)CCC1
Procedure, shortened: as §1

[11] = compound: NCC(=O)Nc1ccc(-n2nc(C(F)(F)F)cc2-c2ccc3c(ccc4ccccc43)c2)cc1
Procedure, shortened: as §1

[12] = compound: Nc1ccccc1NC(=O)c1ccc(CNC(=O)OCc2cccnc2)cc1 [entinostat]
Procedure, shortened: as §1

[13] = compound: O=C(CCCCCCC(=O)Nc1ccccc1)NO [vorinostat]
Procedure, shortened: as §1

[14] = compound: O=C(CCCCCCNC(=O)c1cnc(N(c2ccccc2)c2ccccc2Cl)nc1)NO [citarinostat]
Procedure, shortened: as §1

[15] = compound: O=C(O)c1ccc2c(c1)nc(Nc1cccc(Cl)c1)c1ccncc12 [silmitasertib]
Procedure, shortened: as §1

[16] = compound: O=C1NC(=O)C(c2cnc3ccccn23)=C1c1cn2c3c(cc(F)cc13)CN(C(=O)N1CCCCC1)CC2
Procedure, shortened: as §1

[17] = compound: c1cc(OCCN2CCCCC2)cc(-c2n[nH]c3ccc(-c4nnc[nH]4)cc23)c1
Procedure, shortened: as §1

[18] = compound: Cc1cn(-c2cc(NC(=O)c3ccc(C)c(Nc4nccc(-c5cccnc5)n4)c3)cc(C(F)(F)F)c2)cn1 [nilotinib]
Procedure, shortened: as §1

[19] = compound: Cc1nc(Nc2n[nH]c3c2CN(C(=O)N[C@H](CN(C)C)c2ccccc2)C3(C)C)c2sccc2n1
Procedure, shortened: as §1

[20] = compound: Cc1ncc(-c2ccnc(Nc3ccc(S(C)(=O)=O)cc3)n2)n1C(C)C
Procedure, shortened: as §1

| Target | log2 fold change [1] | log2 fold change [2] | log2 fold change [3] | log2 fold change [4] | log2 fold change [5] | log2 fold change [6] | log2 fold change [7] | log2 fold change [8] | log2 fold change [9] | log2 fold change [10] | log2 fold change [11] | log2 fold change [12] | log2 fold change [13] | log2 fold change [14] | log2 fold change [15] | log2 fold change [16] | log2 fold change [17] | log2 fold change [18] | log2 fold change [19] | log2 fold change [20] |
| --- | --- | --- | --- | --- | --- | --- | --- | --- | --- | --- | --- | --- | --- | --- | --- | --- | --- | --- | --- | --- |
| CIR1 (UniProt Q86X95) | inactive: 0.001 | inactive: -0.091 | inactive: 0.079 | inactive: -0.131 | inactive: -0.06 | inactive: 0.223 | inactive: -0.113 | inactive: 0.014 | inactive: 0.061 | inactive: 0.309 | inactive: 0.018 | inactive: 0 | inactive: -0.056 | inactive: 0.06 | inactive: 0.105 | inactive: 0.067 | inactive: 0.024 |  |  |  |
| CHST12 (UniProt Q9NRB3) | inactive: -0.261 | inactive: -0.059 | inactive: -0.017 | inactive: -0.13 | inactive: 0.107 |  |  | inactive: 0.095 |  |  | inactive: -0.1 | inactive: -0.078 | inactive: 0.068 |  |  | inactive: -0.003 |  |  |  |  |
| CMYA5 (UniProt Q8N3K9) | inactive: -0.308 |  |  | inactive: 0.053 | inactive: 0.024 |  | inactive: -0.017 | inactive: -0.217 |  | inactive: 0.02 |  | inactive: -0.15 |  |  | inactive: 0.167 |  |  | inactive: -0.109 | inactive: 0.034 | inactive: -0.105 |
| CLIP1 isoform 2 (UniProt P30622) | inactive: -0.05 | inactive: 0.08 |  | inactive: 0.065 | inactive: -0.031 | inactive: 0.021 | inactive: 0.037 | inactive: 0.021 |  | inactive: -0.014 | inactive: -0.06 | inactive: -0.058 | inactive: -0.009 | inactive: 0.008 | inactive: -0.056 | inactive: 0.013 | inactive: -0.056 | inactive: 0.012 | inactive: -0.015 | inactive: -0.043 |
| COL15A1 (UniProt P39059) | inactive: 0.25 |  | inactive: 0.125 | inactive: -0.002 | inactive: 0.033 | inactive: 0 | inactive: 0 | inactive: 0.079 | inactive: -0.028 | inactive: 0.026 | inactive: -0.014 | inactive: 0.052 |  | inactive: 0.02 | inactive: 0.047 | inactive: 0.098 | inactive: -0.036 | inactive: 0.092 | inactive: 0.153 | inactive: -0.008 |
| CHST2 (UniProt Q9Y4C5) | inactive: -0.032 |  | inactive: 0.087 | inactive: -0.146 |  | inactive: -0.031 | inactive: 0.003 | inactive: 0.055 | inactive: 0.111 | inactive: 0.113 |  | inactive: -0.041 |  |  | inactive: -0.021 | inactive: -0.121 |  | inactive: 0.114 | inactive: -0.129 | inactive: 0.105 |
| CMIP (UniProt Q8IY22) | inactive: 0 | inactive: 0.115 |  |  | inactive: -0.262 |  | inactive: -0.147 | inactive: 0.143 |  | inactive: -0.056 |  | inactive: 0.184 | inactive: 0.129 | inactive: 0.071 | inactive: 0.121 | inactive: 0.106 | inactive: -0.14 |  |  |  |
| CIAO2B (UniProt Q9Y3D0) | inactive: 0.099 |  | inactive: -0.271 | inactive: 0.024 |  | inactive: 0.097 | inactive: -0.129 | inactive: 0.026 |  | inactive: -0.224 |  | inactive: 0.073 |  | inactive: -0.02 | inactive: 0.17 |  | inactive: -0.058 | inactive: -0.014 | inactive: -0.133 | inactive: -0.077 |
| CNBP (UniProt P62633) | inactive: -0.031 | inactive: -0.048 | inactive: 0 | inactive: -0.069 |  | inactive: 0.093 | inactive: -0.046 | inactive: 0.111 | inactive: 0.07 | inactive: 0.251 |  | inactive: -0.06 | inactive: -0.021 | inactive: -0.069 | inactive: 0.023 |  | inactive: -0.064 | inactive: -0.012 | inactive: 0.025 | inactive: 0.032 |
| CLPTM1L (UniProt G5E9Z2) | inactive: 0.156 | inactive: 0.176 |  | inactive: 0.037 |  |  | inactive: 0.047 | inactive: 0.139 | inactive: 0.237 | inactive: -0.175 | inactive: -0.028 | inactive: -0.012 | inactive: 0.022 |  | inactive: -0.05 | inactive: 0.445 |  | inactive: -0.22 | inactive: 0.099 | inactive: -0.053 |
| CLEC2B (UniProt Q92478) |  |  |  |  |  | inactive: 0.299 |  |  |  |  |  |  |  |  |  |  |  |  |  |  |
| COG2 (UniProt Q14746) |  |  | inactive: -0.051 | inactive: -0.074 | inactive: 0.245 |  | inactive: -0.035 | inactive: -0.07 | inactive: -0.513 | inactive: -0.487 |  | inactive: 0.138 |  | inactive: 0.101 | inactive: 0.248 | inactive: -0.031 | inactive: 0.34 | inactive: -0.169 | inactive: -0.006 | inactive: 0.133 |
| CHTOP isoform 3 (UniProt Q9Y3Y2) |  |  | inactive: 0.137 | inactive: -0.624 |  |  | inactive: 0.149 | inactive: 0.39 |  | inactive: 0.39 | inactive: 0.323 | inactive: -0.078 |  |  | inactive: 0.187 | inactive: 0.252 |  |  |  |  |
| COL14A1 (UniProt Q05707) |  | inactive: -0.035 | inactive: 0.099 |  |  | inactive: 0.102 | inactive: -0.137 | inactive: 0.122 |  | inactive: 0.067 | inactive: -0.267 | inactive: 0.169 | inactive: -0.148 | inactive: 0.102 | inactive: 0.007 | inactive: 0.109 | inactive: -0.208 | inactive: 0.021 | inactive: -0.033 | inactive: 0.047 |
| CHSY1 (UniProt Q86X52) |  |  |  |  |  |  |  |  |  |  |  |  |  |  |  | inactive: 0.279 |  |  |  |  |
| COG4 (UniProt Q9H9E3) |  | inactive: 0.114 | inactive: 0.017 | inactive: 0.028 | inactive: -0.079 |  |  | inactive: 0.3 |  |  | inactive: -0.133 | inactive: 0.047 | inactive: 0.138 |  |  | inactive: 0.34 |  | inactive: 0.157 | inactive: 0.029 | inactive: 0.141 |
| CNRIP1 (UniProt Q96F85) |  |  |  |  | inactive: 0.038 | inactive: -0.075 | inactive: -0.148 |  |  | inactive: 0.258 |  |  |  |  | inactive: -0.13 | active: 0.738 |  | inactive: -0.066 | inactive: -0.071 | inactive: 0.056 |
| CLCNKB (UniProt P51801) |  | inactive: -0.04 | inactive: 0.024 | inactive: 0.108 |  | inactive: 0.209 |  |  | inactive: -0.075 |  | inactive: 0.316 |  | inactive: -0.109 |  |  | inactive: 0.26 |  | inactive: 0.015 | inactive: -0.053 | inactive: -0.069 |

Fetched one by one from above (2):

| Target | log2 fold change [1] | log2 fold change [2] | log2 fold change [3] | log2 fold change [4] | log2 fold change [5] | log2 fold change [6] | log2 fold change [7] | log2 fold change [8] | log2 fold change [9] | log2 fold change [10] | log2 fold change [11] | log2 fold change [12] | log2 fold change [13] | log2 fold change [14] | log2 fold change [15] | log2 fold change [16] | log2 fold change [17] | log2 fold change [18] | log2 fold change [19] | log2 fold change [20] |
| --- | --- | --- | --- | --- | --- | --- | --- | --- | --- | --- | --- | --- | --- | --- | --- | --- | --- | --- | --- | --- |
| CHST12 (UniProt Q9NRB3) | inactive: -0.261 | inactive: -0.059 | inactive: -0.017 | inactive: -0.13 | inactive: 0.107 |  |  | inactive: 0.095 |  |  | inactive: -0.1 | inactive: -0.078 | inactive: 0.068 |  |  | inactive: -0.003 |  |  |  |  |
| CHSY1 (UniProt Q86X52) |  |  |  |  |  |  |  |  |  |  |  |  |  |  |  | inactive: 0.279 |  |  |  |  |
